2 molecules from article PMC5127842 can be followed below.

Amino acid sequences for entries named in this document (tags omitted).
UniProt Q8BQP9: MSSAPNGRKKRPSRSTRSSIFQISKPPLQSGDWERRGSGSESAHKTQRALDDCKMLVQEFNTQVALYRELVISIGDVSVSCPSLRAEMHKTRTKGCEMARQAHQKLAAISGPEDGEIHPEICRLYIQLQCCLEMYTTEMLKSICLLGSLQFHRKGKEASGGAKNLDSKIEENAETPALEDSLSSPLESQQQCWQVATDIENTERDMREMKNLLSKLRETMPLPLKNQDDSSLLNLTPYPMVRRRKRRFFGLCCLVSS

Experiment [1] addresses T1, Regulator of G-protein signaling 7 (RGS7) (mouse (endogenous in cerebellum)) (UniProt O54829).
T1 sequence: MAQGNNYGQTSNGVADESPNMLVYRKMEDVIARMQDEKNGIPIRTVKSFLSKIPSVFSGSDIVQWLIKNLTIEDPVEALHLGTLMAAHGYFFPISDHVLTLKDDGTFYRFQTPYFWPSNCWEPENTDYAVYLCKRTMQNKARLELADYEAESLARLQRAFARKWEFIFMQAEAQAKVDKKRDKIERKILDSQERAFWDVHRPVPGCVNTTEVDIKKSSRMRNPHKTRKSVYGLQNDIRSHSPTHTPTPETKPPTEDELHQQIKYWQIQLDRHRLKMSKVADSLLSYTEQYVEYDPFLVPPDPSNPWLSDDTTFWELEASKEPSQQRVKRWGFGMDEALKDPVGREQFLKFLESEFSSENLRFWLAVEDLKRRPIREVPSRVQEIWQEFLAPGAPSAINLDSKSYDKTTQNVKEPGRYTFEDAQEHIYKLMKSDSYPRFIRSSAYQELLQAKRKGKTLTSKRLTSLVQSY
The experiment in a line: co-IP; mouse cerebellum lysate cleared at 14,000 x g; 2 μg rabbit anti-RGS7 NT or sheep anti-R7BP NT with Protein G beads, 4°C, 1 h; three washes with immunoprecipitation buffer (300 mM NaCl, 50 mM Tris-HCl pH 7.4, 1% Triton X-100); lysates of RGS7-/- or R7BP-/- mice as negative controls; detection by western blot. For orientation: In western blotting, separated proteins are transferred to a membrane and probed.

Experiment [2] addresses R7 binding protein (R7BP) (mouse (endogenous in cerebellum)) (UniProt Q8BQP9). Described as above.

Results are given in words; binding and its absence hold for the method and conditions named. Binding seen in cells or lysates may run through a third protein. Some entries that bind do so weakly or less than the wild type.

Regarding “R7 binding protein (R7BP) (from UniProt Q8BQP9 1-257)”, in experiment [1], the binding result is listed as “binds”.

B1: Regulator of G-protein signaling 7 (RGS7) (protein, UniProt O54829 1-469)
chain: T1 sequence
On to B1, for which, in experiment [2], the binding entry is listed as “binds”.
